PubChem BioAssay AID1508597 – Cure First, 2020
Test: 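Genes whose silencing sensitises or protects ovarian cancer cells against rucaparib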 (primary screen). Cell system: human ovarian carcinoma lines grown from tumours: OCI-P5x (papillary serous) and OCI-C5x (clear cell). Knock-down reagent: siRNA pool against human genes, 1.25 pmol siRNA per well. Timing: 72 h or 96 h, depending on the cell culture. Challenge: rucaparib 20 µM (about IC30) or vehicle, present until read-out. Rucaparib or vehicle: Vehicle. Cell line: OCI-C5x (clear cell). Detection: 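Luminescent ATP-based viability assay read 72 or 96 h after transfection, depending on culture, given as normalised percent viability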. Direction: viability, normalised: higher = more viable cells remaining. Hit rule: 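Active when normalised viability falls below 80 percent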. Meaning of the calls: active = viability under 80%; inactive = viability 80% or more.
Shown is a random part of the about 2,100 reagents, under one of the conditions tested. 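Calls flag viability under 80% in either arm, not effects specific to rucaparib; the reference for percent is not stated.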 Entries without a mark were called inactive. Not stated in the record: the 100% reference.

PRMT5, technical replicate 1 — viability, normalised (%) = 43.4 (active)
PRMT5, technical replicate 2 — viability, normalised (%) = 34.3 (active)
PRMT5, technical replicate 3 — viability, normalised (%) = 49.7 (active)
PTAR1, technical replicate 1 — viability, normalised (%) = 45 (active)
PTAR1, technical replicate 2 — viability, normalised (%) = 55.6 (active)
PTAR1, technical replicate 3 — viability, normalised (%) = 47.9 (active)
ENPP7, technical replicate 1 — viability, normalised (%) = 57.5 (active)
ENPP7, technical replicate 2 — viability, normalised (%) = 53.2 (active)
ENPP7, technical replicate 3 — viability, normalised (%) = 53.3 (active)
SUCLA2, technical replicate 1 — viability, normalised (%) = 77.2 (active)
SUCLA2, technical replicate 2 — viability, normalised (%) = 74.4 (active)
SUCLA2, technical replicate 3 — viability, normalised (%) = 68.1 (active)

Continued, starting with the last 4 of the part before.
ENPP7, technical replicate 3 — viability, normalised (%) = 53.3 (active)
SUCLA2, technical replicate 1 — viability, normalised (%) = 77.2 (active)
SUCLA2, technical replicate 2 — viability, normalised (%) = 74.4 (active)
SUCLA2, technical replicate 3 — viability, normalised (%) = 68.1 (active)
NCOA5, technical replicate 1 — viability, normalised (%) = 55.6 (active)
NCOA5, technical replicate 2 — viability, normalised (%) = 37.9 (active)
NCOA5, technical replicate 3 — viability, normalised (%) = 69.6 (active)
MAPK6, technical replicate 1 — viability, normalised (%) = 60.1 (active)
MAPK6, technical replicate 2 — viability, normalised (%) = 57.8 (active)
MAPK6, technical replicate 3 — viability, normalised (%) = 48 (active)
PRPS1, technical replicate 1 — viability, normalised (%) = 74.1 (active)
PRPS1, technical replicate 2 — viability, normalised (%) = 55.3 (active)
PRPS1, technical replicate 3 — viability, normalised (%) = 46.6 (active)
PRKAB2, technical replicate 1 — viability, normalised (%) = 68.7 (active)
PRKAB2, technical replicate 2 — viability, normalised (%) = 89.2
PRKAB2, technical replicate 3 — viability, normalised (%) = 50.4 (active)
GRK2, technical replicate 1 — viability, normalised (%) = 52.1 (active)
GRK2, technical replicate 2 — viability, normalised (%) = 51.4 (active)
GRK2, technical replicate 3 — viability, normalised (%) = 34.1 (active)
BOK, technical replicate 1 — viability, normalised (%) = 48.9 (active)
BOK, technical replicate 2 — viability, normalised (%) = 42.5 (active)
BOK, technical replicate 3 — viability, normalised (%) = 38.7 (active)
TSSK1A, technical replicate 1 — viability, normalised (%) = 62.4 (active)
TSSK1A, technical replicate 2 — viability, normalised (%) = 62.9 (active)
TSSK1A, technical replicate 3 — viability, normalised (%) = 63.6 (active)
